Laboratory results from patent US20250188151A1 (The University of Bath, priority 2022, published 2025).

Chains of the proteins cited; added tags and fusions are not shown. A line that says so, or that is headed by a name, gives the form on record, which may keep a tag or linker.
UniProt P05412, other isoform, or with tags, fused parts or gaps: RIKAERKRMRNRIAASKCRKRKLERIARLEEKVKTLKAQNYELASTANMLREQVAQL

Target: c-Jun bZIP (Arg252-Leu308) (Homo sapiens) (UniProt P05412)
Assay: binding assay
Settings: CITED Seldeen et al. 2011; c-Jun dimer/TRE; purified recombinant protein; protein details: His-SUMO cleaved, C-terminal GAP cap

## GTCAGTCAGTGACTCAATCGGTCA (double strand) [TRE duplex]
  binding result: binds

Construct, isoform or probe ends are uncertain for at least one entry.
